Measurements reported in PubChem BioAssay AID504786 (Drosophila RNAi Screening Center, 2011)
The screen tested about 21,000 reagents; this is a random part of those that have a named target and a result. 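Primary screen; positive scores mean lost reporter signal, so the sign may be inverted from the usual convention.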 The numbers tell different reagents against one gene apart. Names joined by + are all predicted targets of the reagent. No sequences are given here.

Purpose: 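Fly genes required for HIF-dependent transcription when hypoxia is mimicked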 (primary screen)
Cells: Drosophila S2 cells with a stable HIF luciferase reporter
Knock-down reagent: long dsRNA against Drosophila genes, about 0.2 µg dsRNA per well of a 384-well plate
Duration: three days of knock-down, then 20 h of DFO before reading
Conditions: desferrioxamine (DFO) at 100 µM, an iron chelator that mimics hypoxia, for 20 h
Detection: 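HIF reporter luminescence in cells given 100 µM DFO for 20 h, using the mouse ldh-a hypoxia-response element, scored as per-plate z-scores; higher means greater loss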
Direction: z-score: higher = stronger loss of HIF reporter signal

{"Target gene": "MFS12 (GeneID 35745)", "reagent no.": 1, "z-score, replicate 1": -0.2, "z-score, replicate 2": 0.3}
{"Target gene": "MED31 (GeneID 40577)", "reagent no.": 1, "z-score, replicate 1": 0, "z-score, replicate 2": 1}
{"Target gene": "CG5773 (GeneID 37053)", "reagent no.": 1, "z-score, replicate 1": -0.1, "z-score, replicate 2": -0.2}
{"Target gene": "CG5969 (GeneID 40269)", "reagent no.": 1, "z-score, replicate 1": -0.3, "z-score, replicate 2": 1.8}
{"Target gene": "pnt (GeneID 42757)", "reagent no.": 1, "z-score, replicate 1": -0.1, "z-score, replicate 2": -0.7}
{"Target gene": "Aven (GeneID 32215)", "reagent no.": 1, "z-score, replicate 1": -0.3, "z-score, replicate 2": -0.1}
{"Target gene": "Obp18a (GeneID 32897)", "reagent no.": 1, "z-score, replicate 1": -0.3, "z-score, replicate 2": -0.4}
{"Target gene": "CG10803 (GeneID 31320)", "reagent no.": 1, "z-score, replicate 1": -0.2, "z-score, replicate 2": 0.3}
{"Target gene": "Cyp312a1 (GeneID 40005)", "reagent no.": 1, "z-score, replicate 1": -0.2, "z-score, replicate 2": -0.5}
{"Target gene": "CHOp24 (GeneID 31382)", "reagent no.": 1, "z-score, replicate 1": -0.3, "z-score, replicate 2": -0.2}
{"Target gene": "Efa6 (GeneID 42665)", "reagent no.": 1, "z-score, replicate 1": 0.9, "z-score, replicate 2": 0.1}
{"Target gene": "Efa6 (GeneID 42665)", "reagent no.": 2, "z-score, replicate 1": 0, "z-score, replicate 2": 0.5}
{"Target gene": "Efa6 (GeneID 42665)", "reagent no.": 3, "z-score, replicate 1": -0.1, "z-score, replicate 2": 1.1}
{"Target gene": "CG6788 (GeneID 32773)", "reagent no.": 1, "z-score, replicate 1": -0.4, "z-score, replicate 2": -1.1}
{"Target gene": "Rrp6 (GeneID 41798)", "reagent no.": 1, "z-score, replicate 1": 5.6, "z-score, replicate 2": 4.2}
{"Target gene": "Cyt-c-d (GeneID 34995)", "reagent no.": 1, "z-score, replicate 1": 1.1, "z-score, replicate 2": -0.5}
{"Target gene": "CG34301 (GeneID 5740866)", "reagent no.": 1, "z-score, replicate 1": -0.3, "z-score, replicate 2": -0.3}
{"Target gene": "Mon1 (GeneID 33689)", "reagent no.": 1, "z-score, replicate 1": -0.2, "z-score, replicate 2": -0.3}
{"Target gene": "SdhC (GeneID 41340)", "reagent no.": 1, "z-score, replicate 1": -0.3, "z-score, replicate 2": -0.6}
{"Target gene": "rhea (GeneID 38978)", "reagent no.": 1, "z-score, replicate 1": -0.2, "z-score, replicate 2": -0.3}
{"Target gene": "GramD1B (GeneID 33552)", "reagent no.": 1, "z-score, replicate 1": -0.3, "z-score, replicate 2": -0.6}
{"Target gene": "GramD1B (GeneID 33552)", "reagent no.": 2, "z-score, replicate 1": -0.3, "z-score, replicate 2": -0.6}
{"Target gene": "CG16786 (GeneID 37856)", "reagent no.": 1, "z-score, replicate 1": -0.1, "z-score, replicate 2": -0.6}
{"Target gene": "MED15 (GeneID 33223)", "reagent no.": 1, "z-score, replicate 1": 2.5, "z-score, replicate 2": 2.2}
{"Target gene": "ATPsynC (GeneID 43693)", "reagent no.": 1, "z-score, replicate 1": 1.1, "z-score, replicate 2": 1.1}

4 successive records already listed:
{"Target gene": "MFS12 (GeneID 35745)", "reagent no.": 1, "z-score, replicate 1": -0.2, "z-score, replicate 2": 0.3}
{"Target gene": "MED31 (GeneID 40577)", "reagent no.": 1, "z-score, replicate 1": 0, "z-score, replicate 2": 1}
{"Target gene": "CG5773 (GeneID 37053)", "reagent no.": 1, "z-score, replicate 1": -0.1, "z-score, replicate 2": -0.2}
{"Target gene": "CG5969 (GeneID 40269)", "reagent no.": 1, "z-score, replicate 1": -0.3, "z-score, replicate 2": 1.8}

More reagents:
{"Target gene": "Mlp60A (GeneID 37853)", "reagent no.": 1, "z-score, replicate 1": 0.3, "z-score, replicate 2": 0.2}
{"Target gene": "Ir84a (GeneID 40891)", "reagent no.": 1, "z-score, replicate 1": -0.2, "z-score, replicate 2": -0.1}
{"Target gene": "CG6006 (GeneID 41962)", "reagent no.": 1, "z-score, replicate 1": -0.3, "z-score, replicate 2": -0.4}
{"Target gene": "CG6006 (GeneID 41962)", "reagent no.": 2, "z-score, replicate 1": -0.3, "z-score, replicate 2": -0.5}
{"Target gene": "CrebB (GeneID 32817)", "reagent no.": 1, "z-score, replicate 1": -0.3, "z-score, replicate 2": -0.8}
{"Target gene": "spoon (GeneID 31459)", "reagent no.": 1, "z-score, replicate 1": -0.1, "z-score, replicate 2": -0.3}
{"Target gene": "CG5611 (GeneID 43318)", "reagent no.": 1, "z-score, replicate 1": 0, "z-score, replicate 2": 0.7}
{"Target gene": "Pur-alpha (GeneID 43797)", "reagent no.": 1, "z-score, replicate 1": -0.3, "z-score, replicate 2": -0.6}
{"Target gene": "Gr23a (GeneID 33453)", "reagent no.": 1, "z-score, replicate 1": -0.4, "z-score, replicate 2": -0.5}
{"Target gene": "Rab9Db + Rab9D + Rab9E", "reagent no.": 1, "z-score, replicate 1": -0.2, "z-score, replicate 2": -0.3}
{"Target gene": "Rbp (GeneID 41880)", "reagent no.": 1, "z-score, replicate 1": 1.2, "z-score, replicate 2": 1.5}
{"Target gene": "Rbp (GeneID 41880)", "reagent no.": 2, "z-score, replicate 1": 0, "z-score, replicate 2": -0.3}
{"Target gene": "endos (GeneID 39554)", "reagent no.": 1, "z-score, replicate 1": -0.1, "z-score, replicate 2": -0.3}
{"Target gene": "Es2 (GeneID 31780)", "reagent no.": 1, "z-score, replicate 1": -0.3, "z-score, replicate 2": 0.3}
{"Target gene": "CG13069 (GeneID 50271)", "reagent no.": 1, "z-score, replicate 1": -0.3, "z-score, replicate 2": 0.4}
{"Target gene": "Cpr66D (GeneID 38990)", "reagent no.": 1, "z-score, replicate 1": 0.7, "z-score, replicate 2": 0.4}
{"Target gene": "Cpr66D (GeneID 38990)", "reagent no.": 2, "z-score, replicate 1": 3.9, "z-score, replicate 2": 1.6}
{"Target gene": "MED25 (GeneID 42385)", "reagent no.": 1, "z-score, replicate 1": 3.3, "z-score, replicate 2": 4.4}
{"Target gene": "CG5539 (GeneID 37766)", "reagent no.": 1, "z-score, replicate 1": -0.3, "z-score, replicate 2": -0.5}
{"Target gene": "CG31760 (GeneID 34642)", "reagent no.": 1, "z-score, replicate 1": -0.2, "z-score, replicate 2": -0.1}
{"Target gene": "syd (GeneID 43905)", "reagent no.": 1, "z-score, replicate 1": -0.1, "z-score, replicate 2": -0.5}
{"Target gene": "DIP-eta (GeneID 33793)", "reagent no.": 1, "z-score, replicate 1": -0.5, "z-score, replicate 2": -0.5}
{"Target gene": "Dbx (GeneID 38254)", "reagent no.": 1, "z-score, replicate 1": 1.8, "z-score, replicate 2": -0.4}
{"Target gene": "Dbx (GeneID 38254)", "reagent no.": 2, "z-score, replicate 1": -0.3, "z-score, replicate 2": -0.5}
{"Target gene": "Dbx (GeneID 38254)", "reagent no.": 3, "z-score, replicate 1": -0.2, "z-score, replicate 2": -0.6}
{"Target gene": "kat80 (GeneID 32581)", "reagent no.": 1, "z-score, replicate 1": -0.1, "z-score, replicate 2": -0.2}
{"Target gene": "kat80 (GeneID 32581)", "reagent no.": 2, "z-score, replicate 1": -0.3, "z-score, replicate 2": -0.3}
